Results deposited as PubChem BioAssay AID1053208 (Peter MacCallum Cancer Centre, 2014)
This is one part, drawn at random, of about 17,000 reagents. 788 of them (4.7%) were called active. 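Calls rest on z-score classes alone; an extra cut-off of viability at most 70% of control was not applied to them.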 Reagents against one gene are numbered here. Reagent sequences are not shown.

- Aim: 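Synthetic lethal interactions between gene loss and doxorubicin in osteosarcoma cells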 (primary screen)
- System: mouse osteosarcoma cells, early-passage culture from an engineered mouse model of fibroblastic bone tumour
- Knock-down reagent: siRNA pool against mouse genes, 40 nM
- Time to read-out: about 120 h (48 h before drug, then 72 h with drug)
- Conditions: doxorubicin 100 nM for 72 h, roughly 30-40% inhibitory dose
- Measured: 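Viability read as ATP luminescence after 72 h of 100 nM doxorubicin or none, duplicate wells averaged, scaled to non-targeting siRNA, then expressed as robust z-scores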
- Reading the numbers: viability z-score with doxorubicin and doxorubicin viability vs non-targeting: higher = more viable cells under doxorubicin; viability z-score without drug: higher = more viable cells with knock-down alone; z-score of drug to no-drug ratio: higher = less drug sensitisation by knock-down
- Hit rule: 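Called active if knock-down leaves viability unchanged without drug (z within -2 to 2) but lowers it with doxorubicin (z at or under -2)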

The opening 7 entries as a preview:
combined z-score class	viability z-score with doxorubicin	viability z-score without drug	z-score of drug to no-drug ratio	doxorubicin viability vs non-targeting	outcome	gene symbol	reagent no.
no change with or without drug	0.67	-1.18	1.8	1	inactive	Slbp (GeneID 20492)	1
no change with or without drug	0.67	0.34	0.56	1	inactive	Sh3rf1 (GeneID 59009)	1
high cell count without drug only	0.79	2.87	-0.9	1.01	inactive	Or5j1 (GeneID 258747)	1
no change with or without drug	-0.67	0.67	-1.01	0.88	inactive	Or10a48 (GeneID 258721)	1
no change with or without drug	-0.22	0.51	-0.45	0.92	inactive	Trim10 (GeneID 19824)	1
no change with or without drug	-0.67	1.01	-1.24	0.88	inactive	Dhrs1 (GeneID 52585)	1
no change with or without drug	-1.91	-1.18	-1.12	0.77	inactive	Or2a56 (GeneID 258650)	1

The list itself, from the start:
combined z-score class	viability z-score with doxorubicin	viability z-score without drug	z-score of drug to no-drug ratio	doxorubicin viability vs non-targeting	outcome	gene symbol	reagent no.
no change with or without drug	0.67	-1.18	1.8	1	inactive	Slbp (GeneID 20492)	1
no change with or without drug	0.67	0.34	0.56	1	inactive	Sh3rf1 (GeneID 59009)	1
high cell count without drug only	0.79	2.87	-0.9	1.01	inactive	Or5j1 (GeneID 258747)	1
no change with or without drug	-0.67	0.67	-1.01	0.88	inactive	Or10a48 (GeneID 258721)	1
no change with or without drug	-0.22	0.51	-0.45	0.92	inactive	Trim10 (GeneID 19824)	1
no change with or without drug	-0.67	1.01	-1.24	0.88	inactive	Dhrs1 (GeneID 52585)	1
no change with or without drug	-1.91	-1.18	-1.12	0.77	inactive	Or2a56 (GeneID 258650)	1
no change with or without drug	0.34	0.84	-0.11	0.97	inactive	Pdhb (GeneID 68263)	1
no change with or without drug	-0.67	-0.34	-0.34	0.88	inactive	Rnf43 (GeneID 207742)	1
no change with or without drug	1.57	1.52	0.67	1.08	inactive	Kirrel1 (GeneID 170643)	1
no change with or without drug	-0.45	-0.51	0	0.9	inactive	Kirrel1 (GeneID 170643)	2
no change with or without drug	0	0.34	-0.11	0.94	inactive	Snrpc (GeneID 20630)	1
no change with or without drug	0.67	1.18	0	1	inactive	Slc22a8 (GeneID 19879)	1
no change with or without drug	1.35	1.52	0.45	1.06	inactive	Cyp2c50 (GeneID 107141)	1
no change with or without drug	1.12	0.17	1.12	1.04	inactive	Tec (GeneID 21682)	1
no change with or without drug	-1.57	1.01	-2.14	0.8	inactive	Pramel3c (GeneID 331529)	1
no change with or without drug	0.34	0.34	0.22	0.97	inactive	Ltk (GeneID 17005)	1
no change with or without drug	0.45	0.67	0.11	0.98	inactive	Cntnap5b (GeneID 241175)	1
no change with or without drug	-1.91	1.52	-2.7	0.77	inactive	Coa6 (GeneID 67892)	1
no change with or without drug	1.69	0.84	1.24	1.09	inactive	Nudcd1 (GeneID 67429)	1
no change with or without drug	0	1.52	-0.9	0.94	inactive	Slc43a1 (GeneID 72401)	1
no change with or without drug	-0.45	-0.84	0.22	0.9	inactive	Sorcs3 (GeneID 66673)	1
no change with or without drug	-0.45	0.17	-0.45	0.9	inactive	Psmb9 (GeneID 16912)	1
low cell count with doxorubicin only	-2.92	-0.84	-2.47	0.68	active	Slc38a2 (GeneID 67760)	1
no change with or without drug	-0.22	0.67	-0.56	0.92	inactive	4933404G15Rik (GeneID 74066)	1
no change with or without drug	0	-0.67	0.56	0.94	inactive	Cnot6 (GeneID 104625)	1
no change with or without drug	0.67	0	0.79	1	inactive	Sprr2e (GeneID 20759)	1
no change with or without drug	0.34	0.17	0.34	0.97	inactive	Spink4 (GeneID 20731)	1
no change with or without drug	-1.12	-1.85	0.22	0.84	inactive	Sox11 (GeneID 20666)	1
no change with or without drug	0.34	0.17	0.34	0.97	inactive	Ehmt2 (GeneID 110147)	1
no change with or without drug	-0.22	0.84	-0.67	0.92	inactive	Hgd (GeneID 15233)	1
no change with or without drug	0	0.67	-0.34	0.94	inactive	Rgs18 (GeneID 64214)	1
no change with or without drug	-0.67	-1.18	0.22	0.88	inactive	Stoml2 (GeneID 66592)	1
no change with or without drug	0	0.84	-0.45	0.94	inactive	Ddx25 (GeneID 30959)	1
no change with or without drug	0	1.35	-0.79	0.94	inactive	Ankzf1 (GeneID 52231)	1
no change with or without drug	1.24	1.01	0.67	1.05	inactive	Abt1 (GeneID 30946)	1
no change with or without drug	-1.12	-1.52	0	0.84	inactive	Ttyh3 (GeneID 78339)	1
no change with or without drug	-0.67	-1.52	0.45	0.88	inactive	Ephb3 (GeneID 13845)	1
no change with or without drug	0	1.52	-0.9	0.94	inactive	Sos1 (GeneID 20662)	1
no change with or without drug	-0.45	-1.18	0.45	0.9	inactive	Ankrd40 (GeneID 71452)	1
no change with or without drug	0.22	0.34	0.11	0.96	inactive	Lhfpl4 (GeneID 269788)	1
no change with or without drug	0.11	0.84	-0.34	0.95	inactive	Ccdc71 (GeneID 72454)	1
no change with or without drug	-0.45	-0.67	0.11	0.9	inactive	Nlgn2 (GeneID 216856)	1
low cell count with doxorubicin only	-3.04	-1.52	-2.25	0.67	active	Or1j21 (GeneID 18350)	1
no change with or without drug	-1.35	-1.52	-0.34	0.82	inactive	Tep1 (GeneID 21745)	1
no change with or without drug	0.9	-0.17	1.24	1.02	inactive	Ucma (GeneID 68527)	1
no change with or without drug	-0.22	0.67	-0.56	0.92	inactive	Hecw2 (GeneID 329152)	1
no change with or without drug	1.24	0.67	0.9	1.05	inactive	Pou2f3 (GeneID 18988)	1
no change with or without drug	0.22	-0.51	0.67	0.96	inactive	Ptpru (GeneID 19273)	1
no change with or without drug	-0.67	-0.34	-0.34	0.88	inactive	Sftpa1 (GeneID 20387)	1
high cell count with and without drug	2.36	2.02	1.01	1.15	inactive	Psme3 (GeneID 19192)	1
low cell count with doxorubicin only	-2.02	-1.69	-1.01	0.76	active	Ccdc68 (GeneID 381175)	1
no change with or without drug	-0.9	-0.17	-0.79	0.86	inactive	Slc36a1 (GeneID 215335)	1
high cell count without drug only	1.69	2.19	0.34	1.09	inactive	Spag17 (GeneID 74362)	1
no change with or without drug	-0.45	-0.17	-0.22	0.9	inactive	Zkscan1 (GeneID 74570)	1
high cell count with doxorubicin only	2.92	1.85	1.69	1.2	inactive	Vti1a (GeneID 53611)	1
low cell count with doxorubicin only	-2.36	1.18	-2.92	0.73	active	Vti1a (GeneID 53611)	2
no change with or without drug	-0.45	1.18	-1.12	0.9	inactive	Arl9 (GeneID 384185)	1
no change with or without drug	0.79	0.51	0.56	1.01	inactive	Cep85 (GeneID 70012)	1
no change with or without drug	0	-0.84	0.67	0.94	inactive	Sh3glb2 (GeneID 227700)	1
no change with or without drug	1.24	0.51	1.01	1.05	inactive	Ralb (GeneID 64143)	1
no change with or without drug	-0.45	-0.84	0.22	0.9	inactive	Slc30a4 (GeneID 22785)	1
no change with or without drug	0.79	0.51	0.56	1.01	inactive	Lrrc45 (GeneID 217366)	1
